Results are given in words; binding and its absence hold for the method and conditions named. In cells and extracts the contact can be indirect. Some results given as binding are weak or reduced against the parent protein; the word gives no strength. Sequences can lack the tags named with a protein. Values belong to the binder of their own block, whether it stands above or below them.
Legend:
[1] = biological target: T1, GFP–NDE1–SSSC (in vitro transcribed and translated) (human) (UniProt Q9NXR1); assay: co-IP; both proteins in vitro transcribed and translated; immunoprecipitation by the tag; control without the bait
T1 sequence: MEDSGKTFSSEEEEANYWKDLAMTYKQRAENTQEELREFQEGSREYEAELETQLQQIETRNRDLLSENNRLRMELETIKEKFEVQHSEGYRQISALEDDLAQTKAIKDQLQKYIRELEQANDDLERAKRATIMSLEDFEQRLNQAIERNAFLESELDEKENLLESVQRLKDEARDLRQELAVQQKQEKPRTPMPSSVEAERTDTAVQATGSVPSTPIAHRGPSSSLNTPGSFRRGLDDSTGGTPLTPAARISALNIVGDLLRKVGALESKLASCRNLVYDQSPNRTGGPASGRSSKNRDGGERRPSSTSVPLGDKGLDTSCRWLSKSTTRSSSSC

V5–NDE1–SSSC (human) = biological target: T2, V5–NDE1–SSSC (human) (UniProt Q9NXR1); assay: co-IP; tagged proteins (V5, GFP, FLAG) over-expressed in transfected COS7 cells; immunoprecipitation by the tag from cell lysates; Western blot
T2 sequence: T1 sequence

FLAG–DISC1 = biological target: T3, FLAG–DISC1 (UniProt Q9NRI5); assay: as above
T3 sequence: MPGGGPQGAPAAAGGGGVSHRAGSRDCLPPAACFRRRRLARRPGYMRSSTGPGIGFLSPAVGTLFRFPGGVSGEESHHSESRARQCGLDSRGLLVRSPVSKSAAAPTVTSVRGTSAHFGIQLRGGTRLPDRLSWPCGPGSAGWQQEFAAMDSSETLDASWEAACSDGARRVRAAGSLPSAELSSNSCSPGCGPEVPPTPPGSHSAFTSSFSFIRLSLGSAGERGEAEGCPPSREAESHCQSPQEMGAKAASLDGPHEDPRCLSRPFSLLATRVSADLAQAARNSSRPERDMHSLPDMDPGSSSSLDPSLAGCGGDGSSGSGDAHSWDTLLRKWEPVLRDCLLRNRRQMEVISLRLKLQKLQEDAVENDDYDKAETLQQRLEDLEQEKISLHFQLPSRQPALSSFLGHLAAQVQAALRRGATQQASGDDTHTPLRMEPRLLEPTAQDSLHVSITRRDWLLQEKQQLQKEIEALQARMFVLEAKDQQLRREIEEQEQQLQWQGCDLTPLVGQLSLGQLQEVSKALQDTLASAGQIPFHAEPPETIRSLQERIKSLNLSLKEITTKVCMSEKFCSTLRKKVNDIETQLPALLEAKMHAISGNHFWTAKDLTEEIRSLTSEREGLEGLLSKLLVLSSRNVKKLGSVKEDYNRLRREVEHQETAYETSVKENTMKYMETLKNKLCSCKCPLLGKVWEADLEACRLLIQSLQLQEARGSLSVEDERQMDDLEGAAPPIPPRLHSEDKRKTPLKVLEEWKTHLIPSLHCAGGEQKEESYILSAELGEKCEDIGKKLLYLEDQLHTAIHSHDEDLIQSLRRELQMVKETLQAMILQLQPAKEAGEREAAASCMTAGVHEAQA

[2] = biological target: T4, V5–NDE1–SSSC (in vitro transcribed and translated) (human) (UniProt Q9NXR1); assay: co-IP; both proteins in vitro transcribed and translated; immunoprecipitation by the tag; control without the bait
T4 sequence: T1 sequence

binding [1]: binds
B1: V5–DISC1 (in vitro transcribed and translated) (protein, UniProt Q9NRI5 1-854)
chain: T3 sequence

binding (V5–NDE1–SSSC (human)): binds
B2: GFP–NDE1–SSSC (protein, UniProt Q9NXR1 1-335)
chain: T1 sequence

binding (FLAG–DISC1): binds
B3: V5–NDE1–SSSC (protein, UniProt Q9NXR1 1-335)
chain: T1 sequence

binding [2]: binds
B4: GFP–NDE1–SSSC (in vitro transcribed and translated) (protein, UniProt Q9NXR1 1-335)
chain: T1 sequence
